Test [1] concerns ReNCell VM. Put plainly: neuronal differentiation score (DCX+ cell fraction vs untreated, manual image score) (score (-3 to 3)); higher = more neuronal differentiation. The following applies: 2 uM, 2 weeks.
Test [2] concerns ReNCell VM. Kind of test: dopaminergic neuron differentiation score (TH+ cell fraction vs untreated, manual image score) (score (0 to 3)); higher = more TH+ dopaminergic neuron differentiation. The following applies: 2 uM, 4 weeks, BDNF 10 ng/ml + GDNF 10 ng/ml.

Where a name gives a salt, the structure may show the parent alone. The list shows a part of the results. Repeats in this data set agree poorly, so a single value says little.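 Human fetal ventral-midbrain neural progenitor line ReNCell VM, differentiated without mitogens. Images stained for doublecortin (early neurons) or tyrosine hydroxylase (dopaminergic neurons) were scored by blinded raters against untreated wells (0 = no change). Repeats and both raters were averaged, and compounds averaging 2 or higher were picked as hits for retesting.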

Consider `COC1=C(OC)C(=O)C(CCCCCCCCCCO)=C(C)C1=O` [Idebenone], for which the neuronal differentiation score with ReNCell VM [1] (library: Prestwick) was inactive: 0. The “dopaminergic neuron differentiation score” value with ReNCell VM [2] (library: Prestwick) is inactive: 0.
With `Cc1cccc(C(=O)NCN2CCN(c3ccccc3C#N)CC2)c1` [PD 168,077 maleate], the neuronal differentiation score in the test on ReNCell VM [1] (library: LOPAC) was inactive: 0. For the same compound, in the test with ReNCell VM [2] (library: LOPAC), the “dopaminergic neuron differentiation score” value is inactive: 1.
With `CN(C)CCC=C1c2ccccc2C=Cc2ccccc21`, in the test on ReNCell VM [1] (library: Spectrum), the neuronal differentiation score is inactive: 0. Besides, the “dopaminergic neuron differentiation score” value with ReNCell VM [2] (library: Spectrum) is inactive: 1.
Consider `CC1(C)CC2C1CCC1(C)OC2(C)CCC1O` (centres undefined), for which, in the test on ReNCell VM [1] (library: Spectrum), the neuronal differentiation score is inactive: 0. Moreover, in the test on ReNCell VM [2] (library: Spectrum), the “dopaminergic neuron differentiation score” value is inactive: 0.
As for `COc1ccc(CCN(C)CCCC(C#N)(c2ccc(OC)c(OC)c2)C(C)C)cc1OC` (centres undefined), the neuronal differentiation score in the test with ReNCell VM [1] (library: Spectrum) was inactive: 0. Besides, the “dopaminergic neuron differentiation score” value with ReNCell VM [2] (library: Spectrum) is inactive: 0.
For the compound `O=c1c(O)c(-c2ccc(O)c(O)c2)oc2cc(O)cc(O)c12` [Quercetine dihydrate], the neuronal differentiation score with ReNCell VM [1] (library: Phytochemical) was inactive: 0. Also, the “dopaminergic neuron differentiation score” value with ReNCell VM [2] (library: Phytochemical) is inactive: 0.
Regarding `CC(C)[C@H](N)C(=O)OCCOCn1cnc2c(=O)nc(N)[nH]c21`, the neuronal differentiation score with ReNCell VM [1] (library: Spectrum) was inactive: -1. Moreover, the “dopaminergic neuron differentiation score” value in the test with ReNCell VM [2] (library: Spectrum) was inactive: 0.
With `CSc1nc(N)c2ncn([C@@H]3O[C@H](COP(=O)(O)OP(=O)(O)OP(=O)(O)O)[C@H](O)C3O)c2n1` (some centres undefined) [2-Methylthioadenosine triphosphate tetrasodium], the neuronal differentiation score in the test with ReNCell VM [1] (library: LOPAC) is inactive: 0. Also, the “dopaminergic neuron differentiation score” value in the test with ReNCell VM [2] (library: LOPAC) is inactive: 0.
As to `CC(C)(C)[C@]1(O)CCN2C[C@H]3c4ccccc4CCc4cccc(c43)[C@@H]2C1` [(+)-Butaclamol hydrochloride], the neuronal differentiation score with ReNCell VM [1] (library: LOPAC) was inactive: 1. Besides, the “dopaminergic neuron differentiation score” value with ReNCell VM [2] (library: LOPAC) was inactive: 1.
Turning to `Cc1ccc2c(c1)CC[C@H]1CC(=O)CC[C@]21C`, the neuronal differentiation score in the test on ReNCell VM [1] (library: Spectrum) is inactive: 0. In addition, in the test with ReNCell VM [2] (library: Spectrum), the “dopaminergic neuron differentiation score” value was inactive: 0.
`O=C(Nc1ccccc1)OCC(CN1CCCCC1)OC(=O)Nc1ccccc1` (centres undefined) [Diperodon hydrochloride]: the neuronal differentiation score in the test with ReNCell VM [1] (library: Prestwick) was inactive: 0. Also, the “dopaminergic neuron differentiation score” value in the test on ReNCell VM [2] (library: Prestwick) was inactive: 0.
`CC(=O)N(CC(O)CO)c1c(I)c(C(=O)NCCO)c(I)c(C(=O)NCC(O)CO)c1I` (centres undefined): the neuronal differentiation score in the test with ReNCell VM [1] (library: Spectrum) was inactive: 0. In the test with ReNCell VM [2] (library: Spectrum), the “dopaminergic neuron differentiation score” value was inactive: 0.
`Fc1ccc(CN(C2=NCCN2)c2c(Cl)cccc2Cl)cc1` [IMID-4F hydrochloride]: the neuronal differentiation score with ReNCell VM [1] (library: LOPAC) is inactive: 0. In the test on ReNCell VM [2] (library: LOPAC), the “dopaminergic neuron differentiation score” value was inactive: 0.
For `O=C1N[C@@H](Cc2c[nH]c3ccccc23)C(=O)N[C@H]1Cc1c[nH]c2ccccc12` [cyclo(tryptophyltryptophyl)], the neuronal differentiation score in the test on ReNCell VM [1] (library: Natural) was inactive: 0. In the test on ReNCell VM [2] (library: Natural), the “dopaminergic neuron differentiation score” value is inactive: 0.
With `CC(=O)N[C@@H](CCC(N)=O)C(=O)O`, in the test on ReNCell VM [1] (library: Spectrum), the neuronal differentiation score is inactive: 0. Also, the “dopaminergic neuron differentiation score” value with ReNCell VM [2] (library: Spectrum) was inactive: 0.
In the case of `CCCCCC(O)c1cccc(OCc2ccc3ccccc3n2)c1` (centres undefined), in the test on ReNCell VM [1] (library: LOPAC), the neuronal differentiation score was inactive: 0. Besides, in the test on ReNCell VM [2] (library: LOPAC), the “dopaminergic neuron differentiation score” value is inactive: 0.
For the compound `CC(C)(C)NC(=O)[C@@H]1C[C@@H]2CCCC[C@@H]2CN1C[C@@H](O)[C@H](Cc1ccccc1)NC(=O)[C@H](CC(N)=O)NC(=O)c1ccc2ccccc2n1` [Saquinavir mesylate], the neuronal differentiation score with ReNCell VM [1] (library: Prestwick) was inactive: 0. Moreover, the “dopaminergic neuron differentiation score” value with ReNCell VM [2] (library: Prestwick) was inactive: 1.
`NC(=O)c1ncn([C@@H]2O[C@H](CO)[C@@H](O)[C@H]2O)n1`: the neuronal differentiation score in the test with ReNCell VM [1] (library: Spectrum) was inactive: 1. The “dopaminergic neuron differentiation score” value with ReNCell VM [2] (library: Spectrum) was inactive: 0.
Turning to `OC(CNCC(O)C1CCc2cc(F)ccc2O1)C1CCc2cc(F)ccc2O1` (centres undefined) [Nebivolol hydrochloride], the neuronal differentiation score in the test on ReNCell VM [1] (library: Tocriscreen) was inactive: 1. Also, the “dopaminergic neuron differentiation score” value with ReNCell VM [2] (library: Tocriscreen) is inactive: 0.
With `CC(C)(C#N)c1cc(Cn2cncn2)cc(C(C)(C)C#N)c1`, the neuronal differentiation score in the test with ReNCell VM [1] (library: Spectrum) is inactive: 0. Besides, in the test on ReNCell VM [2] (library: Spectrum), the “dopaminergic neuron differentiation score” value is inactive: 0.
Regarding `CC(=O)O[C@H]1C[C@@H](OC(C)=O)C(C)(C)[C@@H]2C[C@@H](OC(C)=O)[C@@]3(C)C4=CC(=O)O[C@@H](c5ccoc5)[C@]4(C)CC[C@@H]3[C@@]12C`, the neuronal differentiation score with ReNCell VM [1] (library: Spectrum) was inactive: 0. In the test on ReNCell VM [2] (library: Spectrum), the “dopaminergic neuron differentiation score” value was inactive: 0.
Turning to `OCCOCCN1CCN(C(c2ccccc2)c2ccc(Cl)cc2)CC1` (centres undefined) [Hydroxyzine dihydrochloride], in the test with ReNCell VM [1] (library: Prestwick), the neuronal differentiation score was inactive: 0. The “dopaminergic neuron differentiation score” value with ReNCell VM [2] (library: Prestwick) is inactive: 0.
On to `N[C@@H](C(=O)O)c1ccc(C(=O)O)c(C(=O)O)c1`, for which the neuronal differentiation score in the test with ReNCell VM [1] (library: Tocriscreen) is inactive: 0. Further, the “dopaminergic neuron differentiation score” value in the test on ReNCell VM [2] (library: Tocriscreen) is inactive: 0.
Consider `C[C@@H]1O[C@@H](Oc2c(-c3ccc(O)c(O)c3)oc3cc(O)cc(O)c3c2=O)[C@H](O)[C@H](O)[C@H]1O`, for which, in the test with ReNCell VM [1] (library: Spectrum), the neuronal differentiation score was inactive: 0. Also, the “dopaminergic neuron differentiation score” value with ReNCell VM [2] (library: Spectrum) was inactive: 0.
`CC1(C)C(=O)N(CCN2CCC(C(=O)c3ccc(F)cc3)CC2)c2ccccc21` [LY-310,762 hydrochloride]: the neuronal differentiation score in the test with ReNCell VM [1] (library: LOPAC) is inactive: 0. In addition, the “dopaminergic neuron differentiation score” value in the test with ReNCell VM [2] (library: LOPAC) was inactive: 0.
Regarding `OC1(c2ccc(Cl)cc2)CCN(Cc2c[nH]c3ccccc23)CC1`, the neuronal differentiation score with ReNCell VM [1] (library: LOPAC) is inactive: 0. In the test with ReNCell VM [2] (library: LOPAC), the “dopaminergic neuron differentiation score” value is inactive: 0.
`Cc1cc2c(cc1S(N)(=O)=O)S(=O)(=O)CCC2`: the neuronal differentiation score in the test on ReNCell VM [1] (library: Spectrum) was inactive: 0. Besides, in the test with ReNCell VM [2] (library: Spectrum), the “dopaminergic neuron differentiation score” value was inactive: 0.
As for `O=C(OCC(O)CO)c1ccccc1Nc1ccnc2cc(Cl)ccc12` (centres undefined), the neuronal differentiation score in the test with ReNCell VM [1] (library: Spectrum) was inactive: 0. For the same compound, the “dopaminergic neuron differentiation score” value with ReNCell VM [2] (library: Spectrum) was inactive: 0.
In the case of `CCCCCCCCCCC(C)(C)C(=O)Nc1c(OC)cc(OC)cc1OC`, the neuronal differentiation score with ReNCell VM [1] (library: Tocriscreen) was inactive: 0. Besides, the “dopaminergic neuron differentiation score” value in the test on ReNCell VM [2] (library: Tocriscreen) was inactive: 0.
For the compound `CCOC(=O)Nc1ccc(NCc2ccc(F)cc2)nc1N` [Flupirtine maleate], the neuronal differentiation score in the test on ReNCell VM [1] (library: LOPAC) was inactive: 0. The “dopaminergic neuron differentiation score” value in the test with ReNCell VM [2] (library: LOPAC) is inactive: 0.
As for `CC1(C)C=Cc2cc3ccc(=O)oc3cc2O1`, the neuronal differentiation score in the test with ReNCell VM [1] (library: Spectrum) is inactive: 0. Besides, the “dopaminergic neuron differentiation score” value with ReNCell VM [2] (library: Spectrum) was inactive: 0.
Consider `Cc1onc(-c2ccccc2)c1C(=O)N[C@@H]1C(=O)N2[C@@H]1SC(C)(C)[C@@H]2C(=O)O`, for which the neuronal differentiation score in the test with ReNCell VM [1] (library: Spectrum) is inactive: 0. Further, the “dopaminergic neuron differentiation score” value in the test with ReNCell VM [2] (library: Spectrum) was inactive: 0.

The record behind these values is the supplement of paper PMC4635364.
